Compound in this experiment: Cc1cc(ccc1-c1ccccc1)C(=O)N1CCCN(CC1)C(=O)CCl [compound 10]
Kind of experiment: probe-labelled cysteine peptide fold change vs DMSO (competition) (log2 fold change); higher = less target engagement (more negative = stronger competition). The conditions noted are these: THP-1, incubation time: 4 h.

By UniProt entry, the sequences of proteins in these tests, tags left out. Where a name states a change or a piece, a line headed by the entry shows the natural chain unless it says otherwise.
UniProt Q06203, whole entry, looked up: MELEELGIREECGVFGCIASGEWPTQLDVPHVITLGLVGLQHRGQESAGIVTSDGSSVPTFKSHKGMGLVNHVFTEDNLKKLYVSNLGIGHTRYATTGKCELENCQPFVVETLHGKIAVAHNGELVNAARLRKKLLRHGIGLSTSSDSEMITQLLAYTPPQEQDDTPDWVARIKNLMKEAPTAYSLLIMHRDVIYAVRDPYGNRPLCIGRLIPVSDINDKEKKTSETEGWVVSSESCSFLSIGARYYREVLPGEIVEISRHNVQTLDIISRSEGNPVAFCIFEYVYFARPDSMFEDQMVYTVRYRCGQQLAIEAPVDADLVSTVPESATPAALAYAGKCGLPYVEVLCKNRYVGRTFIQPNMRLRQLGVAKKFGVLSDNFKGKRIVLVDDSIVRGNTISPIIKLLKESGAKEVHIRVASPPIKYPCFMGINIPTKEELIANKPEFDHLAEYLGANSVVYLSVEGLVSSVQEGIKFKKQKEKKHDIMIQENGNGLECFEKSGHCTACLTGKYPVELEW
UniProt O95602, whole entry, looked up: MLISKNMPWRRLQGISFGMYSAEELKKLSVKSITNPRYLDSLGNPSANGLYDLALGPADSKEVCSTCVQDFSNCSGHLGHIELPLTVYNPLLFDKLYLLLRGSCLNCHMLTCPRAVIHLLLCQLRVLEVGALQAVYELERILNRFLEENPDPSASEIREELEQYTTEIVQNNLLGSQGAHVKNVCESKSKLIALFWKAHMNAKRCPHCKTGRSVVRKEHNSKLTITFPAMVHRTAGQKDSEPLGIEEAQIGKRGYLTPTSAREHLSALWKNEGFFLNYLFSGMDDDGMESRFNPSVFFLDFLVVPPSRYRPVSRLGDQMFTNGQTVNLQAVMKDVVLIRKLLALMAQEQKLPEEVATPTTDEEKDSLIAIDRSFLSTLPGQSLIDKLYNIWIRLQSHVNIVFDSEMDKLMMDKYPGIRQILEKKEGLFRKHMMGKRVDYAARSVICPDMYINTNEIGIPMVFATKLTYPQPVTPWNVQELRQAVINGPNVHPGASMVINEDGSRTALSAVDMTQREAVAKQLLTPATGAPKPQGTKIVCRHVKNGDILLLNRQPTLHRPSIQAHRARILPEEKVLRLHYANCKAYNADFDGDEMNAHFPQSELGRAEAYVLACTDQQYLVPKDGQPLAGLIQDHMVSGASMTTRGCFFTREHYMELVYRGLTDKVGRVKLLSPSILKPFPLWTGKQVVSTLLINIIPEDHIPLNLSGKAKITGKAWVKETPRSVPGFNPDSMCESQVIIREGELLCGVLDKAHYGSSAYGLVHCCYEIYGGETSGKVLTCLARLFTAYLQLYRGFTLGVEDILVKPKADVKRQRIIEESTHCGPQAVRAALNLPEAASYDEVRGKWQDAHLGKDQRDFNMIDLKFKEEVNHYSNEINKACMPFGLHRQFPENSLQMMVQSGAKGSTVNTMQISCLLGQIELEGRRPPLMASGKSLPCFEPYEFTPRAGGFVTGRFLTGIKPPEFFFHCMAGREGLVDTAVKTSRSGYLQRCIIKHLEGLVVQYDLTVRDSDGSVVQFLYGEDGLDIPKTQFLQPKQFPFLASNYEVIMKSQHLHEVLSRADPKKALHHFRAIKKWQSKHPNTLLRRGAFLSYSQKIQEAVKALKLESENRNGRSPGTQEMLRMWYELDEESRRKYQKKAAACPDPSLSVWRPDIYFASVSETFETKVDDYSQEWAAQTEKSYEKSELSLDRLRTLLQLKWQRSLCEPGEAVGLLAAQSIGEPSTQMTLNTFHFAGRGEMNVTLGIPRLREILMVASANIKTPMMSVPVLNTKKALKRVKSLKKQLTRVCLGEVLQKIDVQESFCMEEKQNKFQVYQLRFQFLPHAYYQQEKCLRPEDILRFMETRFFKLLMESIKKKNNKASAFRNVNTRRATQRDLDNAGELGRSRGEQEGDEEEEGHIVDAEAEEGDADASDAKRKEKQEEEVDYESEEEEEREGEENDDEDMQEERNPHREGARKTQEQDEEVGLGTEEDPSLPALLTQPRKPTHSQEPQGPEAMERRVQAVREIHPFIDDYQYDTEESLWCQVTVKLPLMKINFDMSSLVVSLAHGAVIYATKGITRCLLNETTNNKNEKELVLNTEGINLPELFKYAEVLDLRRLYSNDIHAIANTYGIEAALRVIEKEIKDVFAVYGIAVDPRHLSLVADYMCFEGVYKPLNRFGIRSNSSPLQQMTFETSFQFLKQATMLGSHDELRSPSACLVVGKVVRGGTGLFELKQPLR
UniProt O00411: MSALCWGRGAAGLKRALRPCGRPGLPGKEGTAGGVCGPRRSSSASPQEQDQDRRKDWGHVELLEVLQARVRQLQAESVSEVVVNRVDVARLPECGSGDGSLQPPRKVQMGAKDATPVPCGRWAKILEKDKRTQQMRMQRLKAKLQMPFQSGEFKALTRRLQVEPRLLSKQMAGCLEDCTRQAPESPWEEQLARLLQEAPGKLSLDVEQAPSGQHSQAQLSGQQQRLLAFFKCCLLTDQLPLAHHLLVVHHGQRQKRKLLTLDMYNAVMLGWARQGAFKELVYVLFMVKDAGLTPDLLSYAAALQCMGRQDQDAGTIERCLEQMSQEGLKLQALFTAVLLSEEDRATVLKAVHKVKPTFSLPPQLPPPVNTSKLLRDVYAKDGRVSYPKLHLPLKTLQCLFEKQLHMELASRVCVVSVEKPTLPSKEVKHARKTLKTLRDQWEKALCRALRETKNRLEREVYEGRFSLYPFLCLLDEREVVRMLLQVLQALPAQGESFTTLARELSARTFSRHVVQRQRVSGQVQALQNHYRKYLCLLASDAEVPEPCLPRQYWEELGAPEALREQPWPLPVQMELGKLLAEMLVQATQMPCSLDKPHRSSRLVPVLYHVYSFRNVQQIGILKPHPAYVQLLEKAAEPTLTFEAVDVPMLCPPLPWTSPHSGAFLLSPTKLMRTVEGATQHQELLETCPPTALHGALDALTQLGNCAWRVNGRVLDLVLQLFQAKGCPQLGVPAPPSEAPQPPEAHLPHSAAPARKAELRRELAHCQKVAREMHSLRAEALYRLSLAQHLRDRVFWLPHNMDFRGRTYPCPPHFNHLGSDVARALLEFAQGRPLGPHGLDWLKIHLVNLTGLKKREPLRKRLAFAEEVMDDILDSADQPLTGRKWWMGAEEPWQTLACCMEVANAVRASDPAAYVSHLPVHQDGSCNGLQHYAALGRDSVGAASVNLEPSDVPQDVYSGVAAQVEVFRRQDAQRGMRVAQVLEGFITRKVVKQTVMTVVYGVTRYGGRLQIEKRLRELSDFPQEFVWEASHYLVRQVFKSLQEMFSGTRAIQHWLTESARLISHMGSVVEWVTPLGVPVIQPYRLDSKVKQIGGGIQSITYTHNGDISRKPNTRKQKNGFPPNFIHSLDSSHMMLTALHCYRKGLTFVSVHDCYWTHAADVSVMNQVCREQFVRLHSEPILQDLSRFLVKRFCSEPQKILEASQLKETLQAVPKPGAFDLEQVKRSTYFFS
UniProt Q99575: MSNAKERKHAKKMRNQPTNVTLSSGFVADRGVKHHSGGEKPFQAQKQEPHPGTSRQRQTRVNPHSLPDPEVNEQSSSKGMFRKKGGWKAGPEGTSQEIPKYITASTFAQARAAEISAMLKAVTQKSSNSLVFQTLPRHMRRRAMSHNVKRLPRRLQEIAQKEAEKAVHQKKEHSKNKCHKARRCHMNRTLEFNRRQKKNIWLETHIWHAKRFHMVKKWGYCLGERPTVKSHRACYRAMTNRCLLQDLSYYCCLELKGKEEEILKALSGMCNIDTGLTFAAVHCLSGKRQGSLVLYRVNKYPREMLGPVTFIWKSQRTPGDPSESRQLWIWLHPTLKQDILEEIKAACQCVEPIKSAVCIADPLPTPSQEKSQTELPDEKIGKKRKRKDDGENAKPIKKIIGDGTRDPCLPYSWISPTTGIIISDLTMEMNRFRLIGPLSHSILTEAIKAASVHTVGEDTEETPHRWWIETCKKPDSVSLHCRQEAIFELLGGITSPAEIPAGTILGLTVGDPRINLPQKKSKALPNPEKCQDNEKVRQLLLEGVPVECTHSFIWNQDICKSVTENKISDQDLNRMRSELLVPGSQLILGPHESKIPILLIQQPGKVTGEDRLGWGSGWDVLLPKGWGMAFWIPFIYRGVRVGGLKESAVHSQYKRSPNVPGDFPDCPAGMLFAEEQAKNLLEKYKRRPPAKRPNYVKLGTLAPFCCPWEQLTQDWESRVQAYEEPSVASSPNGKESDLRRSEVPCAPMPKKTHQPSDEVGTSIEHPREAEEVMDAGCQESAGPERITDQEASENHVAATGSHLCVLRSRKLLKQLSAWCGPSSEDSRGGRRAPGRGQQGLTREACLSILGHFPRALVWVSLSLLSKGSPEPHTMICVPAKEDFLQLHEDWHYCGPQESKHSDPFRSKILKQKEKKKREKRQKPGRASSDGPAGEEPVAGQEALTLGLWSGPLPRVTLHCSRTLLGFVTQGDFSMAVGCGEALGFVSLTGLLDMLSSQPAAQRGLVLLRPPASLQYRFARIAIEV
UniProt Q9BY77: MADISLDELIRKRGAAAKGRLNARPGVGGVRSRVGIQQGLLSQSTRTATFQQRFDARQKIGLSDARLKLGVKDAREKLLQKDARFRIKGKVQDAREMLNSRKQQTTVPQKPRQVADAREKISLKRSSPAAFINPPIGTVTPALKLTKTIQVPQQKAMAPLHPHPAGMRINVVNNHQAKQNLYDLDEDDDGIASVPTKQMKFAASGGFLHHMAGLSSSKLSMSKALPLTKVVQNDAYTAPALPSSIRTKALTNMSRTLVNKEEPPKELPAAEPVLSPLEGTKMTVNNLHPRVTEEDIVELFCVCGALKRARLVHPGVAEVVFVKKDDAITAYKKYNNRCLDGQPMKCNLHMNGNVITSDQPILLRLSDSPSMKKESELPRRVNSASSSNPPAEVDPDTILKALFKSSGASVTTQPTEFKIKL
UniProt P28340: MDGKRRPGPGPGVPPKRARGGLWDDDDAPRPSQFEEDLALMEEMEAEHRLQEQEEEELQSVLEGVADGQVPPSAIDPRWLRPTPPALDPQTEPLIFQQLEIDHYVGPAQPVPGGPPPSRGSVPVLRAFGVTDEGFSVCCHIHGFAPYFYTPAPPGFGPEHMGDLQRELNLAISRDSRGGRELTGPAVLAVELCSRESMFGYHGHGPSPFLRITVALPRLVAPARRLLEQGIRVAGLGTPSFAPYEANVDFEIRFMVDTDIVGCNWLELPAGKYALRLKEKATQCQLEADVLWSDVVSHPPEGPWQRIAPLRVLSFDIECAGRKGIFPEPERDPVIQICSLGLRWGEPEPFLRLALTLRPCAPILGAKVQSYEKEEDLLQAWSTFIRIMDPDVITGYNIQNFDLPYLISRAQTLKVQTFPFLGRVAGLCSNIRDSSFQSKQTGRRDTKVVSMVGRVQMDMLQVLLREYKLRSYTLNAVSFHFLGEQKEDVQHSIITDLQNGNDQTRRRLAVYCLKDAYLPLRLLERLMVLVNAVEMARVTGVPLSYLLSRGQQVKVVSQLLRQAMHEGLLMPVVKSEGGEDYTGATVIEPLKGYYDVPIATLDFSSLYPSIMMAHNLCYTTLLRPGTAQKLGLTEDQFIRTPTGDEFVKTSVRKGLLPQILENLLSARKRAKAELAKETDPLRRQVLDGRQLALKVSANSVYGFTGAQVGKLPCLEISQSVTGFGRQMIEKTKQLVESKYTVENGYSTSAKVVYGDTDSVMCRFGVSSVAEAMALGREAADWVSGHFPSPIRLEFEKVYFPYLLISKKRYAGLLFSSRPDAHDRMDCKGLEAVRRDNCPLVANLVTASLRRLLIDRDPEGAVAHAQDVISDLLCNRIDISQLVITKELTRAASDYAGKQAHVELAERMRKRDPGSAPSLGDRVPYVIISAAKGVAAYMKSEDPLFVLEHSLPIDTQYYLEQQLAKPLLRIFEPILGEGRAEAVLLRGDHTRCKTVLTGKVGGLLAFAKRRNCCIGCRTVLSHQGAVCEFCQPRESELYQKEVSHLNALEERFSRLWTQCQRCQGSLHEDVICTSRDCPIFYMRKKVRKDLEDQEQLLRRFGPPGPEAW

Some of the results follow.
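Further: competitive profiling in live THP-1 cells: cysteine peptides tagged with an iodoacetamide desthiobiotin (IA-DTB) probe, intensity after compound treatment relative to DMSO-treated cells.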

Consider “PPAT_Q06203_503+506_SGHCTACLTGK (UniProt Q06203)”, for which the “probe-labelled cysteine peptide fold change” value by setting is: (10 µM) 0.15; (50 µM) -0.0929.

“POLR1A_O95602_968_FLTGIKPPEFFFHCMAGR (UniProt O95602)”: the “probe-labelled cysteine peptide fold change” value reads like this: (10 µM) 0.0135; (50 µM) 0.09.

As for “POLRMT_O00411_178_QMAGCLEDCTR (UniProt O00411)”, the “probe-labelled cysteine peptide fold change” value was -0.328 (10 µM) and -0.992 (50 µM).

Consider “POP1_Q99575_959_VTLHCSR (UniProt Q99575)”, for which the “probe-labelled cysteine peptide fold change” value (10 µM) was determined as 0.187 and the “probe-labelled cysteine peptide fold change” value (50 µM) worked out at 0.0113.

Take “POLR2C_P19387_107_CNEDQTR (UniProt P19387)”: the “probe-labelled cysteine peptide fold change” value (10 µM) is -0.144 and the “probe-labelled cysteine peptide fold change” value (50 µM) was 0.194.

As for “POLDIP3_Q9BY77_301_VTEEDIVELFCVCGALKR (UniProt Q9BY77)”, the “probe-labelled cysteine peptide fold change” value by setting is: (10 µM) 0.0108; (50 µM) -0.485.

In the case of “POLR2K_P53803_19+22_QQPMIYICGECHTENEIK (UniProt P53803)”, the “probe-labelled cysteine peptide fold change” value is -0.0758 (10 µM) and -0.224 (50 µM).

With “POLD1_P28340_319_VLSFDIECAGRK (UniProt P28340)”, the “probe-labelled cysteine peptide fold change” value (10 µM) was -0.084 and the “probe-labelled cysteine peptide fold change” value (50 µM) is -0.546.

The values are drawn from the supplement of paper PMC12067093, “Discovery and optimisation of a covalent ligand for TRIM25 and its application to targeted protein ubiquitination” (Chemical Science, 2025).
